Laboratory results from PubChem BioAssay AID1688 (National Center for Advancing Translational Sciences (NCATS), 2009).
Among all 220,000 compounds or so, about 2,400 (1.1%) were called active. Inconclusive means that the source gave no clear call. Such entries were picked first, then a sample of the others. The call rests on the fitted dose curve; in most records, active means well fitted inhibition curve with a large enough effect; inconclusive means small, poorly fitted or top-dose-only effect, or effect the other way; inactive means no such curve, though single readings can be large or run the other way. Where the call is inconclusive, the potency comes from a doubtful curve fit.
On the % scale 0 is the no-effect control and ±100 the full control effect; potency means the concentration at half of the fitted maximal effect.

Test: qHTS Multiplex Assay to Identify Dual Action Probes in a Cell Model of Huntington: Aggregate Formation (GFP); further: nearly all actives have a fitted effect of over 60% in size
Settings: PC12 HttQ103-GFP aggregates, Acumen cytometry, 40 h; activity change, negative = inhibition: at 46.1 µM (top of the series) unless noted
Method in brief: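 PC12/HTTQ103-GFP, ecdysone-inducible; teb 100 nM; cpd qHTS titration; GFP aggregates read on laser cytometer, Ex 488/Em 500-530 nm.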
For `Cc1cccc(N2C(=O)CC(Sc3nc(-c4ccccc4)c4cc(Cl)ccc4n3)C2=O)c1` (centres undefined), the Potency was inconclusive: 35.5 µM [activator, partial curve].
In the case of `O=c1cc(O)c2c(=O)n(-c3ccccc3)c3c(c2o1)CCCCCC3`, the “activity change, negative = inhibition” value is reported as inactive: 15.1%.
With `O=C(c1ccc(Cl)cc1)c1oc2ccccc2c1CS(=O)c1ccc(Cl)cc1` (centres undefined) the “activity change, negative = inhibition” value was inactive: -10.5%.
For `CCN(CC)C(=O)CSc1ncnc2sc(-c3ccccc3)cc12`, the Potency was inconclusive: 35.5 µM [inhibitor, single point].
In the case of `COC(=O)/C(=N/Nc1cccc(C)c1)N1CCCc2ccccc21`, the Potency is reported as inconclusive: 31.6 µM [inhibitor, single point].
With `CC(=O)[C@]1(O)Cc2c(O)c3c(c(O)c2[C@@H](O[C@H]2C[C@H](N)[C@H](O)[C@H](C)O2)C1)C(=O)c1ccccc1C3=O` the Potency was active: 0.631 µM.
For `CCOC(=O)/C(C#N)=C1/CCCCCN1C`, the “activity change, negative = inhibition” value was inactive: 7.47%.
In the case of `CCCCN1C=CC(=C2N=c3cccc([N+](=O)[O-])c3=N2)C=C1`, the Potency is reported as active: 0.891 µM.
With `CCN1C(=O)/C(=C/c2c(C)nn(C)c2C)SC1=S` the “activity change, negative = inhibition” value was inactive: 6.64%.
In the case of `CN(CC(=O)N1CCc2ccccc21)S(=O)(=O)c1ccc(Br)s1`, the Potency is reported as inconclusive: 0.126 µM [inhibitor, partial curve, poor fit].
With `Cc1ccc(N(CC(=O)Nc2c(C)n(C)n(-c3ccccc3)c2=O)S(C)(=O)=O)cc1C` the Potency was inconclusive: 8.91 µM [inhibitor, partial curve].
For `COc1ccc(C(CC(=O)c2ccc(O)cc2)S(=O)(=O)c2ccc(C)cc2)cc1` (centres undefined), the Potency was inconclusive: 12.6 µM [activator, single point].
In the case of `Brc1ccc2ncnc(Nc3ccc(N4CCOCC4)cc3)c2c1`, the Potency is reported as active: 8.91 µM.
With `CCOc1ccc2nc(Cl)c(/C=C/C(=O)c3ccco3)cc2c1` the Potency was inconclusive: 22.4 µM [activator, single point].
For `Cc1ccccc1NC(=O)c1c(C)[nH]c(=S)c(C#N)c1-c1ccco1`, the “activity change, negative = inhibition” value was inactive: 21.5%.
With `CC(C)C(NC(=O)C(CC(=O)O)NC(=O)C(CCCCN)NC(=O)C(N)CCCN=C(N)N)C(=O)NC(Cc1ccc(O)cc1)C(=O)O` (centres undefined) the “activity change, negative = inhibition” value was inactive: 0%.
In the case of `Cc1cc(C(=O)CCl)c(C)n1-c1ccon1`, the “activity change, negative = inhibition” value is reported as inactive: -27.2%.
With `CCN(CC)C(=O)N1CCn2c(nc3ccccc32)C1` the Potency was inconclusive: 0.562 µM [inhibitor, full curve, poor fit].
In the case of `COc1cc(OC)nc(/N=C/N(C)C)n1`, the “activity change, negative = inhibition” value is reported as inactive: 4.63%.
In the case of `Cc1nc(N/N=C/c2ccccn2)sc1C`, the Potency is reported as inconclusive: 5.62 µM [inhibitor, single point].
In the case of `COc1cc([N+](=O)[O-])ccc1NC(=O)C[n+]1ccccc1`, the “activity change, negative = inhibition” value is reported as inactive: 15.5%.
With `CC(C)(C)C(=O)c1cnc(Nc2ccccc2Cl)s1` the Potency was inconclusive: 10 µM [inhibitor, partial curve, poor fit].
For `Cc1cc(Br)c(OCc2ccc(C(=O)N/N=C3\CC4CC=CC34)cc2)c(Br)c1` (centres undefined), the “activity change, negative = inhibition” value was inactive: -25.1%.
With `CC(C)C[C@H](N)c1nnc(S(=O)(=O)Cc2ccc(F)cc2)o1` the Potency was inconclusive: 8.91 µM [inhibitor, partial curve].
For `CC1CCN(c2oc(Cc3cccc4ccccc34)nc2C#N)CC1`, the Potency was inconclusive: 14.1 µM [inhibitor, partial curve].
With `CCC1CCCCN1C(=O)CSc1nnc(-c2c[nH]c3ccccc23)o1` (centres undefined) the “activity change, negative = inhibition” value was inactive: -14.6%.
For `Cc1nc(C)c(C(=O)C2=C(O)C(=O)N(CCCN(C)C)C2c2ccco2)s1` (centres undefined), the “activity change, negative = inhibition” value was inactive: 5.58%.
In the case of `Cc1nn(-c2ccccc2)c(N2CCCC2)c1/C=N/NC(=O)c1cc(-c2cccnc2)nc2ccccc12`, the Potency is reported as inconclusive: 35.5 µM [inhibitor, single point].
For `CCOC(=O)c1c(C)oc2ccc(OC(=O)COc3c(F)c(F)c(F)c(F)c3F)cc12`, the Potency was active: 12.6 µM.
In the case of `CCOc1ccc(-n2c(=O)cc(N3CCN(c4ccccc4)CC3)[nH]c2=O)cc1`, the Potency is reported as inconclusive: 4.47 µM [inhibitor, single point].
For `Cc1ccc(NC(=S)C2=C(O)c3sccc3N(C)S2(=O)=O)cc1`, the Potency was inconclusive: 3.55 µM [activator, partial curve].
For `Cc1ccccc1C(=O)N1CCN(c2ncnc3c2cnn3-c2ccccc2)CC1`, the Potency was inconclusive: 14.1 µM [inhibitor, single point].
For `CCCOc1ccc(C(=O)CCC(=O)OCC(=O)Nc2ccc(OCC)cc2)cc1`, the activity change, negative = inhibition was inactive: 41.6% [at 9.22 µM].
In the case of `CNc1c([N+](=O)[O-])ncn1C`, the activity change, negative = inhibition is reported as inactive: -2.43% [at 9.22 µM].
With `CCOC(=O)c1c(C)[nH]c(C)c1C(=O)CSc1nc2ccccc2c(=O)n1-c1ccc(Cl)cc1` the Potency was active: 20 µM.
In the case of `OC(c1cccc(OCc2ccccc2)c1)c1nnc(-c2ccccc2)o1` (centres undefined), the Potency is reported as inconclusive: 10 µM [inhibitor, partial curve].
In the case of `Cc1ccc(OCC(=O)N2CCOCC2)c([N+](=O)[O-])n1`, the activity change, negative = inhibition is reported as inactive: 20% [at 9.22 µM].
With `COc1cccc(/C=N/NC(=O)c2csc(-n3nc(C)cc3C(F)(F)F)n2)c1` the “activity change, negative = inhibition” value was inactive: -14.5%.
With `CCOC(=O)c1c(NC(=O)c2ccccc2C)sc2c1CC(C)(C)OC2` the Potency was inconclusive: 25.1 µM [inhibitor, single point].
In the case of `CNC(=O)CN1C(=O)CSc2ncccc21`, the Potency is reported as inconclusive: 1.26 µM [inhibitor, single point].
In the case of `Cc1c(N=C2C=CC(=O)c3ccccc32)c(=O)n(-c2ccccc2)n1C`, the Potency is reported as inconclusive: 35.5 µM [inhibitor, single point].
With `N#C/C(=C\c1c(N2CCOCC2)nc2ccccn2c1=O)S(=O)(=O)c1ccccc1` the “activity change, negative = inhibition” value was inactive: -3.14%.
In the case of `CC(=O)N[C@@H](Cc1c[nH]c2ccccc12)C(=O)OCC(=O)NCc1ccc2c(c1)OCO2`, the “activity change, negative = inhibition” value is reported as inactive: 19.5%.
With `COc1ccc(-c2ccc(C#N)c(OC(=O)c3c(Cl)cccc3Cl)n2)cc1` the Potency was inconclusive: 4.47 µM [activator, full curve, poor fit].
With `CCc1c(O)c(/C(C)=N\O)c(=O)n(-c2ccccc2)c1-c1ccccc1` the Potency was inconclusive: 11.2 µM [activator, partial curve, poor fit].
In the case of `CC(C)(C)n1cnc2cc(NS(=O)(=O)c3ccc(Br)cc3)ccc21`, the Potency is reported as inconclusive: 17.8 µM [inhibitor, single point].
With `CC1=C(/C=N/Nc2ccc([N+](=O)[O-])cc2[N+](=O)[O-])C(C)(C)CCC1` the Potency was inconclusive: 2.82 µM [activator, partial curve].
With `CCOC(=O)C1CCN(CCC(=O)Nc2cccc(Cl)c2C)CC1` the “activity change, negative = inhibition” value was inactive: 7.36%.
For `COc1cc(/C=N/Nc2nc3ccccc3[nH]2)cc(OC)c1O`, the Potency was inconclusive: 28.2 µM [activator, partial curve].
In the case of `O=C(Nc1ccc(-c2nc3ccccc3o2)cc1)c1cc(-n2cnnc2)ccc1Cl`, the Potency is reported as inconclusive: 31.6 µM [inhibitor, single point].
In the case of `CC(=O)Nc1cc(-c2ccc(Cl)cc2)[nH]n1`, the activity change, negative = inhibition is reported as inactive: 0.282% [at 9.22 µM].
In the case of `CCOC(=O)c1c(NC(=O)CN2CCN(C(=O)c3ccco3)CC2)sc(C(N)=O)c1C`, the “activity change, negative = inhibition” value is reported as inactive: 22%.
For `COc1ccc(C(=O)Nc2ccc(Cl)c(S(=O)(=O)Nc3ccccc3OC)c2)cc1`, the Potency was inconclusive: 8.91 µM [inhibitor, partial curve].
For `CCCOc1ccc(/C=N/NC(=O)CN(c2ccc(OCC)cc2)S(C)(=O)=O)cc1`, the Potency was inconclusive: 0.794 µM [activator, single point].
For `CCOC(=O)C1CCN(C(=O)c2cccc(NS(=O)(=O)c3ccc(F)c(F)c3)c2)CC1`, the “activity change, negative = inhibition” value was inactive: -10.6%.
With `O=C1CC(=C(c2ccccc2)c2ccccc2)C(=O)N1CCCCN1CCN(c2ccccc2)CC1` the Potency was inconclusive: 35.5 µM [inhibitor, single point].
With `C=CCNc1nc(-c2ccccn2)nnc1-c1ccccc1` the Potency was inconclusive: 6.31 µM [inhibitor, single point].
With `COc1ccc(Cn2nnnc2CN(Cc2cc3cccc(C)c3[nH]c2=O)C2CCCC2)cc1` the Potency was inconclusive: 35.5 µM [inhibitor, single point].
For `COc1ccc(C(=O)NNC(=O)c2ccc(S(=O)(=O)N3CCOCC3)cc2)cc1`, the “activity change, negative = inhibition” value was inactive: 6.08%.
In the case of `COc1ccc(NC(=S)NN2CCOCC2)cc1OC`, the Potency is reported as inconclusive: 5.62 µM [inhibitor, single point].
For `O=C(Nc1nsc(-c2ccccc2)n1)c1ccc(F)cc1`, the Potency was inconclusive: 8.91 µM [inhibitor, partial curve].
With `COc1cccc(/C=N/Nc2nc(Nc3ccc([N+](=O)[O-])cc3)nc(N3CCCC3)n2)c1O` the Potency was inconclusive: 7.94 µM [inhibitor, partial curve].
In the case of `O=C(Nc1nnc(C2CC2)s1)c1cc(-c2ccccc2)nn1-c1ccccc1`, the Potency is reported as inconclusive: 35.5 µM [inhibitor, single point].
In the case of `CCC(NC(=O)Nc1nnc(C(F)(F)F)s1)(C(F)(F)F)C(F)(F)F`, the Potency is reported as active: 1.58 µM.
In the case of `Cc1nc2c(sc3nc4c(cc32)COC(C)(C)C4)c(=O)n1Cc1ccccc1`, the Potency is reported as inconclusive: 25.1 µM [inhibitor, single point].
In the case of `O=C(c1ccccc1)N1CCC(c2nc(-c3ccc(S(=O)(=O)N4CCOCC4)cc3)no2)CC1`, the Potency is reported as inconclusive: 8.91 µM [inhibitor, partial curve].
For `O=C(Nc1ccc(C(F)(F)F)cc1)C1CCCN1S(=O)(=O)c1cccc2cccnc12` (centres undefined), the Potency was inconclusive: 35.5 µM [inhibitor, single point].
For `Cc1ccc(CN2CCN(C/C(Cl)=C/c3ccccc3)CC2CCO)o1` (centres undefined), the activity change, negative = inhibition was inactive: -8.15% [at 9.22 µM].
With `Cc1[nH]n(-c2ccccc2)c(=O)c1C=Nc1ccc(S(=O)(=O)NC(N)=O)cc1` the activity change, negative = inhibition was inactive: 24.9% [at 9.22 µM].
